For 37 compounds, AC50 and cell number change results are on record in PubChem BioAssay AID2685 (National Center for Advancing Translational Sciences (NCATS), 2010).

This test can be described thus: qHTS Assay for Lipid Storage Modulators in Drosophila S3 Cells.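 On cell number change: cells counted by Cell Tracker Red CMTPX staining in the red channel.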 The following applies: BODIPY lipid droplet fluorescence, 18-24 h; for cell number change: measured here: cell count max response, cells fed with added oleic acid. In a few lines:
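Laser-scanning cytometry quantifies lipid droplet accumulation (500–530 nm total intensity; droplet/cell object ratio) in oleic acid-fed (400 uM added) Drosophila S3 cells treated with a concentration series. 20 uM Triacsin C defined 100% inhibition.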

[1] abbreviates: measured here: lipid fluorescence (Fed channel) AC50, cells fed with added oleic acid.
Where [2] appears, read: measured here: cell number channel AC50, cells fed with added oleic acid.

Some of the results follow. The main result of the screen is listed elsewhere. These columns were measured beside it and carry no call. Most of these compounds were active or inconclusive in the main read-out, so they are no random draw. Words in brackets tell the shape of the fitted curve; partial curves, single points and poor fits give uncertain potencies.

Consider `COC(=O)c1ccc(C(=O)Nc2ccc3nc(-c4cccnc4)[nH]c3c2)cc1`, for which the AC50 under setting [1] was 5.8 µM [rising, full curve].

Regarding `N#Cc1c2c(c(NCCOCCO)n3c1nc1ccccc13)CCCC2`, the cell number change was -28.8%. Also, under setting [2], the concentration at half-maximal activity (AC50) is 0.82 µM [falling, full curve, poor fit].

With `CSCCC(NC(=O)OC(C)(C)C)C(=O)Oc1ccc2c(=O)c(-c3ccc4c(c3)OCCO4)coc2c1` (centres undefined), the cell number change was -21.2%. Besides, under setting [1], the AC50 is 0.164 µM [falling, full curve, poor fit].

In the case of `COC(=O)CN1C(=O)C(O)(CC(=O)c2ccc(Cl)cc2)c2ccccc21` (centres undefined), the cell number change was -1.76%. Further, the AC50 under setting [2] is 0.58 µM [falling, single point].

On to `Nc1ccccc1NC(=O)CCn1c(=S)[nH]c2ccccc2c1=O`, for which the cell number change was -23.8%. Besides, under setting [1], the half-maximal activity concentration (AC50) is 6.51 µM [falling, single point].

Turning to `O=C(CCCCn1c(=O)[nH]c2ccsc2c1=O)NCc1ccc2c(c1)OCO2`, the AC50 under setting [1] was 32.6 µM [rising, single point].

Consider `N#CC1=C(N)NC(SCC(=O)Nc2ccc(Br)cc2)=C(C#N)C12CCCCC2`, for which the cell number change was found to be 62.2%. Moreover, under setting [2], the half-maximal activity concentration (AC50) was 0.206 µM [rising, full curve]. The half-maximal activity concentration (AC50) under setting [1] is 0.058 µM [rising, full curve, poor fit].

Turning to `CC(C)(C)NS(=O)(=O)c1ccc(NC(=O)c2cc(-c3ccccc3)nc3ccccc23)cc1`, the cell number change is 1.55%.

Consider `CC(OC(=O)C1CCN(c2ccc(C(F)(F)F)cn2)CC1)C(=O)Nc1cccc([N+](=O)[O-])c1` (centres undefined), for which the cell number change is -4.9%.

For the compound `COc1cccc(-c2csc(N3CCN(CC(=O)Nc4ccc5c(c4)OCO5)CC3)n2)c1`, the cell number change is -1.33%. For the same compound, the AC50 under setting [1] was 2.91 µM [rising, partial curve].

In the case of `CC1=CCC2C(=O)N(c3ccc(Br)cc3C)C(=O)C2C1` (centres undefined), the cell number change was -14.7%. Moreover, under setting [1], the AC50 is 0.103 µM [rising, full curve, poor fit].

For the compound `CC1(C)CC2CC(C)(CN2C(=O)c2ccc([N+](=O)[O-])cc2[N+](=O)[O-])C1` (centres undefined), the cell number change is -111%.

In the case of `COc1ccc(C(=O)NCCNc2nc3cc(C)c(C)cc3cc2C)cc1`, the cell number change is -18%. Further, the AC50 under setting [1] was 3.26 µM [rising, partial curve, poor fit].

On to `O=C(Nc1nnc(-c2cccs2)o1)c1cccc(C(F)(F)F)c1`, for which the cell number change was -67.1%. The AC50 under setting [2] was 29.1 µM [falling, single point]. Under setting [1], the concentration at half-maximal activity (AC50) was 0.0259 µM [falling, full curve].

As to `Cc1cn(C2OC[C@@H](O)[C@@H]2CO)c(=O)[nH]c1=O` (some centres undefined), the cell number change is -15.3%. Further, the half-maximal activity concentration (AC50) under setting [1] was 29.1 µM [falling, single point].

For `O=C(Nc1ccc(S(=O)(=O)Nc2nccs2)cc1)c1ccc(=O)[nH]c1`, the cell number change is -1.91%. Also, the AC50 under setting [1] is 2.06 µM [falling, partial curve, poor fit].

With `CC(C)(C)c1nnc(N/N=C/c2ccccc2O)n(N)c1=O`, the cell number change is -25.6%. Further, the AC50 under setting [1] is 20.6 µM [falling, single point].

`COc1ccc(CC(=O)N(C)CC(=O)Nc2c(C)cccc2C)cc1S(=O)(=O)N1CCOCC1`: the cell number change was -22.9%. For the same compound, the half-maximal activity concentration (AC50) under setting [2] was 1.46 µM [falling, full curve, poor fit].

On to `CCc1ccc(NC(=O)CSCCN2C(=O)c3ccccc3C2=O)cc1`, for which the cell number change is -7.38%. Also, the concentration at half-maximal activity (AC50) under setting [2] is 6.51 µM [rising, single point].

As for `COc1ccc(S(=O)(=O)N2CCC(O)(c3ccc4c(c3)OCO4)CC2)cc1`, the cell number change turned out to be 97.1%. Also, the concentration at half-maximal activity (AC50) under setting [2] was 13 µM [rising, partial curve]. For the same compound, the AC50 under setting [1] was 14.6 µM [rising, partial curve].

For `COc1ccc(OC)c(/C=C2\S/C(=N/NC(=O)c3ccc4ccccc4c3)NC2=O)c1`, the cell number change was -18.1%. Moreover, the AC50 under setting [2] is 2.06 µM [falling, partial curve, poor fit].

Consider `CN(CC(=O)Nc1ccccc1F)CC(=O)Nc1ccc(F)c(F)c1F`, for which the cell number change was -0.82%. The half-maximal activity concentration (AC50) under setting [1] was 29.1 µM [rising, single point].

`CC1CCN(S(=O)(=O)c2ccc3c(c2)c(=O)c(C(=O)NCc2cccs2)cn3C)CC1`: the cell number change came to 22.4%. In addition, under setting [1], the AC50 was 6.51 µM [rising, single point].

On to `COC(=O)c1oc2ccc(Br)cc2c1NC(=O)c1ccccc1`, for which the cell number change is -44.9%. Besides, the half-maximal activity concentration (AC50) under setting [2] is 10.3 µM [falling, partial curve].

On to `O=C(Cc1ccc(-c2ccccc2)cc1)OCC(=O)N1CCCC1=O`, for which the cell number change is 22.4%.

Turning to `CCN(CC)CCN1C(=O)C2C(C(=O)Nc3cc(C)cc(C)c3)C3C=CC2(O3)C1C(=O)NC1CCCCC1` (centres undefined), under setting [1], the AC50 is 0.103 µM [falling, full curve, poor fit].

For `Cc1cc(N(C)C)c(C#N)c(N2CCCCC2)n1`, the cell number change worked out at 1.84%.

As to `CCn1c(=O)cc(OCC(=O)N2CCc3ccccc32)c2ccccc21`, the cell number change was 6.07%. For the same compound, the AC50 under setting [1] is 9.2 µM [rising, partial curve].

As for `CC(C)OCCCn1c(=S)[nH]c2cc3c(cc2c1=O)OCO3`, the cell number change was -21.7%. For the same compound, under setting [1], the concentration at half-maximal activity (AC50) is 29.1 µM [falling, single point].

Take `CCOc1ccc2nc(Nc3nc(CSc4nnnn4-c4ccccc4)cc(=O)[nH]3)nc(C)c2c1`: the cell number change came to 20.3%. Moreover, the AC50 under setting [1] is 0.164 µM [rising, full curve, poor fit].

`CCOC(=O)C1(CCCc2ccccc2)CCN(C(=O)Cn2nc(C)nc2C)CC1`: the cell number change is -11%. Also, under setting [1], the concentration at half-maximal activity (AC50) was 3.66 µM [falling, full curve, poor fit].

On to `CCn1c(SCc2nc(-c3cccs3)no2)nnc1-c1c[nH]c2ccccc12`, for which the half-maximal activity concentration (AC50) under setting [2] is 2.91 µM [rising, single point] and the AC50 under setting [1] was 3.66 µM [rising, partial curve].

Regarding `CCCNCc1cc(OC)c(OCC(=O)Nc2ccccc2)cc1Br`, the cell number change is 30.8%. Further, under setting [1], the AC50 is 20.6 µM [rising, partial curve].

Turning to `CCN(c1ccccc1)S(=O)(=O)c1ccc(Cl)c(C(=O)NCc2ccco2)c1`, the cell number change amounted to 1.64%. Under setting [1], the half-maximal activity concentration (AC50) was 7.31 µM [falling, single point].

Turning to `CC(=O)c1cccc(CN2CCCC(C(=O)Nc3cccc(-n4cccn4)c3)C2)c1` (centres undefined), the cell number change is -24.4%.

On to `Cc1cccn2c(=O)nc(SCC(=O)c3ccccc3)nc12`, for which the cell number change came to 30.9%. Besides, under setting [2], the AC50 was 0.0731 µM [rising, full curve]. In addition, the AC50 under setting [1] was 0.092 µM [rising, full curve].

For `CC(=O)Nc1ccc(Cc2nc3c([nH]2)c(=O)n(C)c(=O)n3C)cc1`, the cell number change came to 31.1%. The half-maximal activity concentration (AC50) under setting [2] is 16.4 µM [rising, partial curve, poor fit].
